Experimental data published in patent publication US20020198219A1, “2-pyridinamine compositions and related methods” (priority 2000, published 2002).

Tested on: differentiated P19 neurons
Experiment: Differentiated P19 excitotoxicity assay (glutamate/glycine-induced death, Alamar Blue)
Type: cell-based, murine
Details: 3 mM glutamate + 1 mM glycine; mean of three separate curves
Method: Alamar Blue fluorescence, an indicator of cell viability, was used to determine cell viability after an NMDA-induced cytotoxic insult. […] However, since raw fluorescence counts vary from experiment to experiment, FIGS. 2A, 2B, and 2C are expressed as a percent of control.
Glutamate toxicity dose response in the presence of a constant 1 mM glycine concentration was measured in the differentiated P19 neurons. The curve generated through the data points is the average of 6 separate dose response curves. Data points are represented as the percent of control cells ±standard error. % control=(([Glutamate]exp−[Glutamate]max)/(Controlvehicle−[Glutamate]max))×100. […]
Cell viability was determined. Compounds that prevented excitotoxicity were determined by measuring the percentage of viable cells compared to differentiated P19 cells that were not presented with a toxic insult (Table I).
Cell viability was measured using two methods. The first method was a confocal, single-cell fluorescence imaging-based method using the live cell dye carboxy-fluorescein diacetate (CFDA). […] CFDA fluorescence was measured using a modified Attofluor Imager device (Atto Instruments, Rockville Pike, Md.). […]
The second method for measuring cell viability was a plate reader method. […] Baseline fluorescence counts were read at room temperature in a Wallac plate reader immediately after addition of Alamar blue. […]

SMILES: C[S+]([O-])c1ccc(-c2nc(-c3ccncc3)c(-c3ccc(F)cc3)[nH]2)cc1 (stereo not shown) [SB203580]
- IC50 for Neuroprotection [lower-upper 95% C.I.]: Ineffective
